Assay results as given in patent US20110033397A1, “Anti-Aging Compositions Comprising Menyanthes Trifoliata Leaf Extracts And Methods Of Use Thereof” (priority 2006, published 2011).
For at least one compound, name, drawing or mass did not settle the structure.

The chains behind the UniProt entries cited, without tags or fusion partners. Residues count along the entry.
UniProt P08253, 110-446 limits assumed: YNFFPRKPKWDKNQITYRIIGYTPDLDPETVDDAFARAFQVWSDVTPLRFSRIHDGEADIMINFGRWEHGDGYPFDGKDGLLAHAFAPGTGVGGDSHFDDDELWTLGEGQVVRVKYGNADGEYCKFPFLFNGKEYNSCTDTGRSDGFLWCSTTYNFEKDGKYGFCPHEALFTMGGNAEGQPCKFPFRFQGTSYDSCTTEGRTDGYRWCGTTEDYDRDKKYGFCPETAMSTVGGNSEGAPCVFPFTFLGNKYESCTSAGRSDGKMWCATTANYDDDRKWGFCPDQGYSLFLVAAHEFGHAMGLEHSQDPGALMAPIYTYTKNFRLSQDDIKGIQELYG
UniProt P14780, 107-444 limits assumed: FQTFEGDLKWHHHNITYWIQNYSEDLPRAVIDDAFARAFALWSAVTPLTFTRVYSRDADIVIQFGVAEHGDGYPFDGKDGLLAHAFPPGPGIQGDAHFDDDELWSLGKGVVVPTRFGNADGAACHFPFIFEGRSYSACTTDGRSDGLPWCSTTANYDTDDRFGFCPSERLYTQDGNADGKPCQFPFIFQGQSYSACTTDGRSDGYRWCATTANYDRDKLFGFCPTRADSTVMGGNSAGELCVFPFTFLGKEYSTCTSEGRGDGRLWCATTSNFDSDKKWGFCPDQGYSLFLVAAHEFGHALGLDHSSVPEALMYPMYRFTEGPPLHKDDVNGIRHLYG

How the values were obtained:
Type in all cases: biochemical
MMP-2 = molecular target: T1, MMP-2 (Homo sapiens, UniProt P08253); test: In vitro specific inhibition of MMP-2 activity (Biomol assay kit); details: summary of Tables 2 and 4
T1 construct: purchased Biomol
Experimental: (§1) Several extracts and sub-fractions from the leaves of Menyanthes trifoliata were prepared by liquid-liquid partitioning and fractionation on a Sephadex LH20 gel filtration column (see example 1) and evaluated for specific anti-MMP activity. In vitro specific inhibition of MMP-2 and MMP-9 activity was estimated with assay kits from Biomol®. Recombinant human MMP-1 enzyme may be obtained from any commercially available source. […] Therefore, a lower value indicates a stronger MMP inhibition.
(§2) To further understand which agents may be contributing to the MMP-1, 2, 9 inhibition activity, standards of the different phenol acids, flavonoids and coumarins, identified in Menyanthes trifoliata extracts, were tested for their in vitro inhibition of MMPs-1, 2 and 9. In vitro specific inhibition of MMP-2 and MMP-9 activity is estimated with assay kits from Biomol®. Recombinant human MMP-1 enzyme is obtained from any commercially available source.

[1] = Peroxynitrite scavenging (ABEL peroxynitrite antioxidant test kit with Pholasin); details: summary of Table 6
Experimental: Assay was performed with the ABEL® peroxynitrite antioxidant test kit with Pholasin®. Standards of different phenolic acids and flavonoids, identified in […] trifoliata extracts, were tested for their in vitro peroxynitrite scavenging activity. Assay was performed with the ABEL® peroxynitrite antioxidant test kit with Pholasin®.

MMP-9 = molecular target: T2, MMP-9 (Homo sapiens, UniProt P14780); test: In vitro specific inhibition of MMP-9 activity (Biomol assay kit); details: summary of Tables 2 and 4
T2 construct: purchased Biomol
Experimental: as §1, §2

[2] = molecular target: T3, Recombinant human MMP-1 enzyme (Homo sapiens, UniProt P03956); test: In vitro inhibition of MMP-1 activity; details: summary of Tables 2 and 4
T3 construct: purchased
T3 sequence (P03956 100-469): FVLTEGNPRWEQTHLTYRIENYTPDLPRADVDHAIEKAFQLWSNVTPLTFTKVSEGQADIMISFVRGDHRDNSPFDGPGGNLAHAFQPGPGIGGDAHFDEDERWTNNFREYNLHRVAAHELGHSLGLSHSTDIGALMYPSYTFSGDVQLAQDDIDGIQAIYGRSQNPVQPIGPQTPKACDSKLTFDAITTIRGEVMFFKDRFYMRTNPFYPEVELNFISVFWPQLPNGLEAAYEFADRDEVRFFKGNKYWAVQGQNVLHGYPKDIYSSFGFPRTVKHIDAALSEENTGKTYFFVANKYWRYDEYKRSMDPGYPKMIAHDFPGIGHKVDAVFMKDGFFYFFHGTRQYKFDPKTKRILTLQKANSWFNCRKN
From the text: In vitro specific inhibition of MMP-2 and MMP-9 activity was estimated with assay kits from Biomol®. Recombinant human MMP-1 enzyme may be obtained from any commercially available source. […] Therefore, a lower value indicates a stronger MMP inhibition.
In vitro specific inhibition of MMP-2 and MMP-9 activity is estimated with assay kits from Biomol®. Recombinant human MMP-1 enzyme is obtained from any commercially available source.

C[C@@H]1O[C@@H](OC[C@H]2O[C@@H](Oc3c(-c4ccc(O)c(O)c4)oc4cc(O)cc(O)c4c3=O)[C@H](O)[C@@H](O)[C@@H]2O)[C@H](O)[C@H](O)[C@H]1O [Rutin]
strong: in vitro MMP-2 inhibition activity, in words (MMP-2) | peroxynitrite scavenging activity, in words [1] | in vitro MMP-9 inhibition activity, in words (MMP-9) | in vitro MMP-1 inhibition activity, in words [2]

O=c1c(O[C@@H]2O[C@H](CO)[C@@H](O)[C@H](O)[C@H]2O)c(-c2ccc(O)c(O)c2)oc2cc(O)cc(O)c12 [Iso-quercitrin]
strong: in vitro MMP-2 inhibition activity, in words (MMP-2) | peroxynitrite scavenging activity, in words [1] | in vitro MMP-9 inhibition activity, in words (MMP-9) | in vitro MMP-1 inhibition activity, in words [2]
